According to paper PMC10247153:
A weaker result is weaker than the reference pair of the same experiment. Tags and fusion partners may be left off the protein sequences shown.

Target: T1, KDM5C ARID (Homo sapiens) (UniProt P41229)
T1 sequence (looked up): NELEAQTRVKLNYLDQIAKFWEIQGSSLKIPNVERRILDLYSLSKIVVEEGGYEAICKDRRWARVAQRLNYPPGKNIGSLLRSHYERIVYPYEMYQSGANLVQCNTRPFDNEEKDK
Experiment: EMSA
Details: minimal binding, no Kd given; EMSA: 50 mM HEPES pH 7.5, 50 mM KCl, 1 mM BME, 0.01% Tween-20, 0.01% BSA, 5% sucrose, 1 h on ice; 100 nM nucleosome or 147 bp DNA, 500 nM 20 bp DNA; gel at 4 C; recombinant protein; residues 73-188; protein details: 6xHis-SUMO cleaved

GCCGGTCGCGAACAGCGACC (double strand) [3' flanking (linker) DNA 20 bp]
binding result: binds more weakly
